Among the data in doi:10.1101/634915 are binding values, retold here.

The chains behind the UniProt entries cited, without tags or fusion partners.
UniProt P51149: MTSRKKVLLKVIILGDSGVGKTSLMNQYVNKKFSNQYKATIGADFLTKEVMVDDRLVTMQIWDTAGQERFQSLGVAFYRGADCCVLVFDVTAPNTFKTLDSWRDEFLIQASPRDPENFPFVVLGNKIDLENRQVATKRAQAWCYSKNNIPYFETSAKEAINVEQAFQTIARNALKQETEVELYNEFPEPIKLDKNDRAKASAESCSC

These are yes or no findings as the source states them, for the method shown. Binding seen in cells or lysates may run through a third protein. Some binding calls cover weakened binding; strength is not graded here. Tags and fused reporters may be left off the sequences shown.

This test deals with RlucII-Rab7A (UniProt P51149). The test can be described thus: FRET or BRET. (In general: In BRET a luciferase serves as donor, and the signal depends on an acceptor being close.)

B1: GFP10-CLN3^R334H (protein, UniProt Q13286 1-438)
chain: MGGCAGSRRRFSDSEGEETVPEPRLPLLDHQGAHWKNAVGFWLLGLCNNFSYVVMLSAAHDILSHKRTSGNQSHVDPGPTPIPHNSSSRFDCNSVSTAAVLLADILPTLVIKLLAPLGLHLLPYSPRVLVSGICAAGSFVLVAFSHSVGTSLCGVVFASISSGLGEVTFLSLTAFYPRAVISWWSSGTGGAGLLGALSYLGLTQAGLSPQQTLLSMLGIPALLLASYFLLLTSPEAQDPGGEEEAESAARQPLIRTEAPESKPGSSSSLSLRERWTVFKGLLWYIVPLVVVYFAEYFINQGLFELLFFWNTSLSHAQQYRWYQMLYQAGVFASHSSLRCCRIRFTWALALLQCLNLVFLLADVWFGFLPSIYLVFLIILYEGLLGGAAYVNTFHNIALETSDEHREFAMAATCISDTLGISLSGLLALPLHDFLCQLS
Consider B1, for which the binding result is “binds”.

B2: GFP10-CLN3^V330F (protein, UniProt Q13286 1-438)
chain: MGGCAGSRRRFSDSEGEETVPEPRLPLLDHQGAHWKNAVGFWLLGLCNNFSYVVMLSAAHDILSHKRTSGNQSHVDPGPTPIPHNSSSRFDCNSVSTAAVLLADILPTLVIKLLAPLGLHLLPYSPRVLVSGICAAGSFVLVAFSHSVGTSLCGVVFASISSGLGEVTFLSLTAFYPRAVISWWSSGTGGAGLLGALSYLGLTQAGLSPQQTLLSMLGIPALLLASYFLLLTSPEAQDPGGEEEAESAARQPLIRTEAPESKPGSSSSLSLRERWTVFKGLLWYIVPLVVVYFAEYFINQGLFELLFFWNTSLSHAQQYRWYQMLYQAGFFASRSSLRCCRIRFTWALALLQCLNLVFLLADVWFGFLPSIYLVFLIILYEGLLGGAAYVNTFHNIALETSDEHREFAMAATCISDTLGISLSGLLALPLHDFLCQLS
Consider B2, for which the binding entry was “binds”.

B3: GFP10-CLN3^L101P (protein, UniProt Q13286 1-438)
chain: MGGCAGSRRRFSDSEGEETVPEPRLPLLDHQGAHWKNAVGFWLLGLCNNFSYVVMLSAAHDILSHKRTSGNQSHVDPGPTPIPHNSSSRFDCNSVSTAAVPLADILPTLVIKLLAPLGLHLLPYSPRVLVSGICAAGSFVLVAFSHSVGTSLCGVVFASISSGLGEVTFLSLTAFYPRAVISWWSSGTGGAGLLGALSYLGLTQAGLSPQQTLLSMLGIPALLLASYFLLLTSPEAQDPGGEEEAESAARQPLIRTEAPESKPGSSSSLSLRERWTVFKGLLWYIVPLVVVYFAEYFINQGLFELLFFWNTSLSHAQQYRWYQMLYQAGVFASRSSLRCCRIRFTWALALLQCLNLVFLLADVWFGFLPSIYLVFLIILYEGLLGGAAYVNTFHNIALETSDEHREFAMAATCISDTLGISLSGLLALPLHDFLCQLS
Regarding B3, the binding entry is “binds”.

B4: GFP10-CLN3^E295K (protein, UniProt Q13286 1-438)
chain: MGGCAGSRRRFSDSEGEETVPEPRLPLLDHQGAHWKNAVGFWLLGLCNNFSYVVMLSAAHDILSHKRTSGNQSHVDPGPTPIPHNSSSRFDCNSVSTAAVLLADILPTLVIKLLAPLGLHLLPYSPRVLVSGICAAGSFVLVAFSHSVGTSLCGVVFASISSGLGEVTFLSLTAFYPRAVISWWSSGTGGAGLLGALSYLGLTQAGLSPQQTLLSMLGIPALLLASYFLLLTSPEAQDPGGEEEAESAARQPLIRTEAPESKPGSSSSLSLRERWTVFKGLLWYIVPLVVVYFAKYFINQGLFELLFFWNTSLSHAQQYRWYQMLYQAGVFASRSSLRCCRIRFTWALALLQCLNLVFLLADVWFGFLPSIYLVFLIILYEGLLGGAAYVNTFHNIALETSDEHREFAMAATCISDTLGISLSGLLALPLHDFLCQLS
B4: the binding result is “binds”.
